Source: US12678427B2, “Combination therapy having antioxydant properties” (GENFIT, priority 2019, dated 2026)
For at least one compound, name, drawing or mass did not settle the structure.

Tested on: antioxidant genes (SOD, Cat, GPX1, GST enzymes)
Experiment: Hepatic transcriptomic analysis (RNAseq) in CDAA+1% cholesterol model of fibrosing NASH
Format: in vivo, C57Bl/6J mice
Details: liver RNAseq, normalized over CDAA/c; NTZ 100 mg/kg/day, 12 weeks

SMILES: CC(=O)Oc1ccccc1C(=O)Nc1ncc([N+](=O)[O-])s1 [NTZ, [2-[(5-nitro-1,3-thiazol-2-yl)carbamoyl]phenyl]ethanoate]
- expression of GST enzymes involved in detoxification of peroxidized products: significantly induced
